# According to publication PMC9338278:
# Amino acid sequences for entries named in this document (tags omitted).
# UniProt P22700: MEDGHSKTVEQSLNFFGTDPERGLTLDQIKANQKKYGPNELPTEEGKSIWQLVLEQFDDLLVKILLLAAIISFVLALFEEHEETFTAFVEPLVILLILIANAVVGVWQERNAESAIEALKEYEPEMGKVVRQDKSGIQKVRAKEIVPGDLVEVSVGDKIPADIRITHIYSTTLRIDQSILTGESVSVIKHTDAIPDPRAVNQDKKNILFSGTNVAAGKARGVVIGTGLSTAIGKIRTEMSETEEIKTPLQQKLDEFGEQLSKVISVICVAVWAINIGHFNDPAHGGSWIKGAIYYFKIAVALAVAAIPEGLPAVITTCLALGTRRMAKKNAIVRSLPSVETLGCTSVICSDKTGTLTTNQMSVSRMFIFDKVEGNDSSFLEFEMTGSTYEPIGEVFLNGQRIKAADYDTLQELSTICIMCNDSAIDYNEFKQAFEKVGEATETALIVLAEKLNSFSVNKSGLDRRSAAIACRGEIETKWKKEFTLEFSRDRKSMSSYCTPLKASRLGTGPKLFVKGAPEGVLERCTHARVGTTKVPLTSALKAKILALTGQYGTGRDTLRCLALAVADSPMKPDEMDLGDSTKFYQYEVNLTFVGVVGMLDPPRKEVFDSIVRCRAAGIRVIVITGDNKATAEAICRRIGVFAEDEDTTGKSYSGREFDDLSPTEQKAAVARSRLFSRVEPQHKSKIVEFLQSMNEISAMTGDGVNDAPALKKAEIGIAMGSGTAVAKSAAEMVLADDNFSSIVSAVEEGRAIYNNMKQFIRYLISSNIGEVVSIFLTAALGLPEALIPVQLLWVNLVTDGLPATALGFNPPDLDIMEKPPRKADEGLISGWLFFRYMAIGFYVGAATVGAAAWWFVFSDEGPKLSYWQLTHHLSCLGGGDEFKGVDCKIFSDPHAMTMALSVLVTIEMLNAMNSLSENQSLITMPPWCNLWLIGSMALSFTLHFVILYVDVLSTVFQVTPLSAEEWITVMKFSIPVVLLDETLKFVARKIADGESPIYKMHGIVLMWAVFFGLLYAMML
# No constants are given. Whether binding was seen depends on the method and setting. Binding seen in cells or lysates may run through a third protein. Here binding means that the protein was enriched with, or labelled near, the bait; the list need not be complete. Tags and fused reporters may be left off the sequences shown.
# Biological target: T1, Nep4A::roGFP (Drosophila Neprilysin 4, isoform A, fused to roGFP2) (Drosophila melanogaster) (UniProt Q8T062)
# T1 sequence: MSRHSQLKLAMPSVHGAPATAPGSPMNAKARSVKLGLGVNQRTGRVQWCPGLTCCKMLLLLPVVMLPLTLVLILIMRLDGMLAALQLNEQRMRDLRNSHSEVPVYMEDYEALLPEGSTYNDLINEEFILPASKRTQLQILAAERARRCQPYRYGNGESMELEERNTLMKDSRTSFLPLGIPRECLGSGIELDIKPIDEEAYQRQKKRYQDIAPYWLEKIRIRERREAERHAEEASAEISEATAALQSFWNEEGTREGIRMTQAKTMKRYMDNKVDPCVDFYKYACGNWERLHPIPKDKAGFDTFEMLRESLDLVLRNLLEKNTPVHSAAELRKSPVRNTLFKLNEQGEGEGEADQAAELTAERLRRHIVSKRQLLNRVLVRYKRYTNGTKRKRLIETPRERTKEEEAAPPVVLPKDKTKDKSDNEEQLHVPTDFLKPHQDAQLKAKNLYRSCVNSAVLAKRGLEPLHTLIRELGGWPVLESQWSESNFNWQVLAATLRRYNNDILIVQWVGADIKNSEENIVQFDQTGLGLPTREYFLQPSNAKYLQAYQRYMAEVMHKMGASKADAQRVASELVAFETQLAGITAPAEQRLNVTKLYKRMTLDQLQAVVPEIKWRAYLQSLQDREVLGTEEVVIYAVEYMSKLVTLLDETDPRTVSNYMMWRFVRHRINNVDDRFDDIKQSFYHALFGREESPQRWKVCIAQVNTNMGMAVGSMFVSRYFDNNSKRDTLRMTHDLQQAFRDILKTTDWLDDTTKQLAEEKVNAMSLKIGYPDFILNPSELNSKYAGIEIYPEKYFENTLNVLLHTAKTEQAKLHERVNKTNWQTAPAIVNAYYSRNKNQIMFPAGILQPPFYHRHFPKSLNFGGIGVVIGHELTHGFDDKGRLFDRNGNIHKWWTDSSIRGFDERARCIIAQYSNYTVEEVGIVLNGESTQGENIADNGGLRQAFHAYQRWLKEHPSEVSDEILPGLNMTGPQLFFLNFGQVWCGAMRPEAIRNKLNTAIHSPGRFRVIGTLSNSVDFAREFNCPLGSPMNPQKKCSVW
# Test: affinity purification with mass spectrometry; GFP-tagged bait expressed in third instar larval muscle (mef2-Gal4); larval homogenate in 150 mM NaCl, 50 mM Tris, 1 mM MgCl, 0.2% DDM; anti-GFP MicroBeads, 30 min at 4 °C; on-column trypsin digest, label-free quantification, three biological replicates
substance,measurement,value
"sarcoplasmic and endoplasmic reticulum Ca2+ ATPase (SERCA), Drosophila (from UniProt P22700 1-1020) (enzyme)",binding,binds
